This is an account of results in paper PMC10687260, “1,3-Diphenylureido hydroxamate as a promising scaffold for generation of potent antimalarial histone deacetylase inhibitors” (Scientific Reports, 2023).

Usually IC50 stands for the point on the concentration scale where inhibition reaches its midpoint.

Read-outs that look alike come from different tables or passages of the source.

In one assay the test system is P. falciparum 3D7. Description: Antiplasmodial SYBR Green I proliferation assay, P. falciparum 3D7. It counts as cell-based, Plasmodium falciparum. As to conditions: values in brackets 95% confidence intervals. The source says: (§1) Antiplasmodial activity against P. falciparum 3D7 (A, C and E) and P. falciparum Dd2 (B, D, F). […] Curves were plotted using non-linear regression based on means from three independent experiments measured in triplicate. Error bars indicate standard deviation, whose values are provided in the respective table.
(§2) Plasmodium falciparum culture and antiplasmodial activity. […] Development, parasitaemia, and morphology of parasites were monitored by light microscopy of thin blood smears stained according to the Romanowsky method (Panótico Rápido staining kit; Laborclin, Pinhais, Paraná, Brazil). […] Fresh 0^+ blood was generously provided by “Hospital Novo Atibaia” (Atibaia, SP, Brazil), and approved by the ethics committee at ICB-USP. […] Parasite proliferation was measured by the DNA load via fluorescence, using 100 μL of a lysis buffer with SYBR Green I (0.02% v/v) and incubated for 1 h at room temperature in the dark. […] Focal and gain adjustment was performed using the non-treated controls (highest expected fluorescence signal). […] Non-treated parasites, the highest solvent concentration on parasites, CQ on parasites, and the highest drug concentration in the medium were used as controls for maximal growth, solvent control, positive biological control, and native drug fluorescence, respectively.

The subject of the next assay is P. falciparum Dd2. Kind of assay: Antiplasmodial SYBR Green I proliferation assay, P. falciparum Dd2. It counts as cell-based. As to conditions: Plasmodium falciparum, DD2, read-out: IC50 P. falciparum Dd2.
Text: as §1, §2

The test system of a further assay is HepG2 cells. Description: Cytotoxicity in human HepG2 cells (WST-1). As to conditions: read-out: IC50 HepG2, 48 h, listed as SAHA. The format is cell-based. Here is the method: Cytotoxicity in human HepG2 cells.[47] […] Cytotoxic effects of compounds were assessed using the cell proliferation reagent WST-1 (Roche; CELLPRO-RO) in a 96-well plate-based screening assay. HepG2 cells were seeded at 10^4 cells/well (100 μL) in 96-well flat-bottom plates (Sarstedt) the night before the experiment to allow attachment of cells. The next day, two-fold serial dilutions of compounds were prepared in fresh medium in an extra plate, and the medium of cells was replaced by the medium containing the compound dilutions. Non-treated cells (max. proliferation), cells treated with the maximal solvent concentration (DMSO; solvent control), and medium with the maximal compound concentration (native absorbance) used as controls. […] Subsequently, 10 μL WST-1 was added to each well and plates were incubated for additional 4 h under standard conditions. WST-1 is a tetrazolium salt and is metabolised by the mitochondrial succinate-tetrazolium-reductase system of living cells and forms formazan, whose absorbance was measured at 450 nm. Absorbance at 630 nm was assessed to check for protein and precipitation background. Both measurements were acquired via the CLARIOstar (V5.20) and MARS software, manually scaled to 0–100%, and plotted with GraphPad Prism (version 9.5.2 for Windows, GraphPad Software, La Jolla California USA).
(In general: Tetrazolium assays rely on reduction of a dye to a coloured formazan, in cell work by metabolically active cells.)

Regarding `O=C(CCCCCCC(=O)Nc1ccccc1)NO` [Vorinostat (SAHA, 1), Vorinostat, reference compound], the IC50 was 420 nM in the assay with P. falciparum 3D7 (Plasmodium falciparum, 3D7, 96 h, read-out: IC50 Pf3D7, 96 h); 360 nM in the assay with P. falciparum 3D7 (read-out: IC50 Pf3D7, 96 h); 540 nM in the assay on P. falciparum Dd2; 96800 nM with HepG2 cells.
